No constants are given. Whether binding was seen depends on the method and setting. Binding seen in cells or lysates may run through a third protein. Some results given as binding are weak or reduced against the parent protein; the word gives no strength. For part of these data: Sequences can lack the tags named with a protein.

Amino acid sequences for entries named in this document (tags omitted). Residues count along the entry.
UniProt P37023, residues 22-503: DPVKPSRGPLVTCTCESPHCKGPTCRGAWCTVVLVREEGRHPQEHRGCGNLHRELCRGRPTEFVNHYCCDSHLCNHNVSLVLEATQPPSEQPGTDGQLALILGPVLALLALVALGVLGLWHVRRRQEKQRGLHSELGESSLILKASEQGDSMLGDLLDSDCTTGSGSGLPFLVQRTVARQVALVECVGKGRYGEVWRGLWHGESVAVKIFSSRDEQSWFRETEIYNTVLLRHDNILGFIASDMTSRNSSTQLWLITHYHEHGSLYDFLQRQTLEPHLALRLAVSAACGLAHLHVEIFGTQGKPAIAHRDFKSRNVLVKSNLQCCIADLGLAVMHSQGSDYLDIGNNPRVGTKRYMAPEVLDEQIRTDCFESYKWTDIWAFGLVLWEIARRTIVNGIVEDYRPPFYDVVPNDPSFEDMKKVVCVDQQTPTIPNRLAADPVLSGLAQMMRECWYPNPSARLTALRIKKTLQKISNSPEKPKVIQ
UniProt P06213, residues 28-1382: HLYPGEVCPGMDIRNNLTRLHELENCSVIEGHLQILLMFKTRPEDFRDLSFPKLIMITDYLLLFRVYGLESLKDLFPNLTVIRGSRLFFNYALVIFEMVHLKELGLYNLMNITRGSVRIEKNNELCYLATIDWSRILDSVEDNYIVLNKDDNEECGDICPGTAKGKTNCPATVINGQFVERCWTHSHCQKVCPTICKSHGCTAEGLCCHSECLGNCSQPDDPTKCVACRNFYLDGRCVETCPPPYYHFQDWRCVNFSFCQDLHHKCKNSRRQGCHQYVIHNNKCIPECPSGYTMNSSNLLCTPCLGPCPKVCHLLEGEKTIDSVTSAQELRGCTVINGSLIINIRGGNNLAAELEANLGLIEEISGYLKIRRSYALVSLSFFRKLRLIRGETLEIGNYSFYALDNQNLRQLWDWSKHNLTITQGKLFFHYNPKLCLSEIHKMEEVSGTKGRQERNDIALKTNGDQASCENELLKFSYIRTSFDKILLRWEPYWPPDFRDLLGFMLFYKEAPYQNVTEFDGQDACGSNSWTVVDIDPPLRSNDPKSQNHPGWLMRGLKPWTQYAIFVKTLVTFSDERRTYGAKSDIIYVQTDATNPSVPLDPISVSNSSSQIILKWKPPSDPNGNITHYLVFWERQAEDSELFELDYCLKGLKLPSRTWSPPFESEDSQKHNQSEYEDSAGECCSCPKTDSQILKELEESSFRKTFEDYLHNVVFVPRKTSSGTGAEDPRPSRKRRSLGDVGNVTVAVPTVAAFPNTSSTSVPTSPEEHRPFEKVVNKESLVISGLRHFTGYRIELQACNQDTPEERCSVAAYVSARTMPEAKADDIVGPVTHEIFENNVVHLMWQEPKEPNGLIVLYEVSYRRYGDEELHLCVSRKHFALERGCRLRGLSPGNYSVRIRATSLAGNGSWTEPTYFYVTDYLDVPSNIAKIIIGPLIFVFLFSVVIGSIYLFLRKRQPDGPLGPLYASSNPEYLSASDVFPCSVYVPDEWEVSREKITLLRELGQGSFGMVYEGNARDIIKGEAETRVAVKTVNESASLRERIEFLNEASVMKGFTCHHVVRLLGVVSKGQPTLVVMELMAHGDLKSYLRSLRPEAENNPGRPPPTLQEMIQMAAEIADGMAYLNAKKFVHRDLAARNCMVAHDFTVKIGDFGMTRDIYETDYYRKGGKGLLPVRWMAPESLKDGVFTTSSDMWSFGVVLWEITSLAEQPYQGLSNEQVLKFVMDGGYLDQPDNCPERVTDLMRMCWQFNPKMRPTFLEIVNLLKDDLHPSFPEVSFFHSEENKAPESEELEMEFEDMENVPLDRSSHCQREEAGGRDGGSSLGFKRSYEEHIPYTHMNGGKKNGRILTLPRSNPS

Assay [1] addresses T1, hemagglutinin (HA)-tagged endoglin (human) (UniProt P17813).
T1 sequence: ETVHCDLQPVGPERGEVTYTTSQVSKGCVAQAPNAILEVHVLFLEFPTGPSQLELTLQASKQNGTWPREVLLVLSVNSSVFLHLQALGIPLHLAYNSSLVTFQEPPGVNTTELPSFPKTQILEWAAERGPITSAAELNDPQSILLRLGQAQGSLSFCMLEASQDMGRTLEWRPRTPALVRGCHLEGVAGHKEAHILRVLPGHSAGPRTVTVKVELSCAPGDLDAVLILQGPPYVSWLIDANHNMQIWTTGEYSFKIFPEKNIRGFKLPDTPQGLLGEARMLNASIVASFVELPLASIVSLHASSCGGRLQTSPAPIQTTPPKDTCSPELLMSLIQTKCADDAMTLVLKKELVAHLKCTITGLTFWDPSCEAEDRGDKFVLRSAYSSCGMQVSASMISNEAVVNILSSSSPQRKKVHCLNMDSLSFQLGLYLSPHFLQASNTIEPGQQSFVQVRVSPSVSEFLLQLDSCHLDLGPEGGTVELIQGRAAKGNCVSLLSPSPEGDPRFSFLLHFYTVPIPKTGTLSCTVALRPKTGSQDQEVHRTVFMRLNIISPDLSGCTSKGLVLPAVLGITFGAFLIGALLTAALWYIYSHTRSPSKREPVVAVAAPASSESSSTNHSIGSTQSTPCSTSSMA
The experiment in a line: co-IP; COS-7 cells overexpressing HA-endoglin and IR; IP with HA antibody (legend: endoglin antibody), blot for IR; lysis buffer 20 mM Hepes pH 7.4, 150 mM NaCl, 5 mM NaF, 1% NP-40; 6 h at 4 °C.

The target in the next assay is Myc-tagged ALK1 (UniProt P37023). The experiment in a line: pull-down; Myc-ALK1 from COS-7 cells immobilised on anti-Myc bead column as bait; separately prepared COS-7 lysates with endoglin alone, IR alone, or endoglin and IR; Western blot; only the target purified. Background: A western blot detects proteins with antibodies after separation by electrophoresis.
Assay [2] concerns the target T2, endogenous endoglin of mouse embryonic endothelial cells (mouse (endogenous in MEECs)) (UniProt Q63961).
T2 sequence: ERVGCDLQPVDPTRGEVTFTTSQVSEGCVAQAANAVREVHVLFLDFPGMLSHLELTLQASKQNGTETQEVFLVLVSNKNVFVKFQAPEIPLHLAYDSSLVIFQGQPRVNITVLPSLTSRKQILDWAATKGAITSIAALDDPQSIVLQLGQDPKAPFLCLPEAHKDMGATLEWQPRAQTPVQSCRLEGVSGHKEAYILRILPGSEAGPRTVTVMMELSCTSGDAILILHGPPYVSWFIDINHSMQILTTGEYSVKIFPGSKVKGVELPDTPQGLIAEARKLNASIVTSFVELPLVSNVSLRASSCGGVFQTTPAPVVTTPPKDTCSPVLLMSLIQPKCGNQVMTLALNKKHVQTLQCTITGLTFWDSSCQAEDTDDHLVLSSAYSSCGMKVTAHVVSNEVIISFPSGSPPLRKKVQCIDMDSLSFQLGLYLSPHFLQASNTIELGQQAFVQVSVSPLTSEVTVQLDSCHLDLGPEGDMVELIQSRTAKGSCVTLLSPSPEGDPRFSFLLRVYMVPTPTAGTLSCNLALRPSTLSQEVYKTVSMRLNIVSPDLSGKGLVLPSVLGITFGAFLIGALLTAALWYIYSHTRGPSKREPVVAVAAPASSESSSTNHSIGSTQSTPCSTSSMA
The experiment in a line: co-IP; endogenous proteins in Eng+/+ MEECs (Eng-/- as control), serum starved 6 h, with or without insulin for 15 min; IP of endoglin, blots for IR and ALK1; lysis buffer 20 mM Hepes pH 7.4, 150 mM NaCl, 5 mM NaF, 1% NP-40.

On to “insulin receptor (IR), overexpressed in COS-7 cells (from UniProt P06213 28-1382)”, for which the binding entry in assay [1] was “binds”.

B1: hemagglutinin (HA)-tagged endoglin (receptor, UniProt P17813 26-658)
chain: T1 sequence
Take B1: the binding result with Myc-tagged ALK1 is recorded as “binds”.

B2: endogenous ALK1 of mouse embryonic endothelial cells (receptor, UniProt Q61288 23-502)
chain: DLAKPSKLVNCTCESPHCKRPFCQGSWCTVVLVREQGRHPQVYRGCGSLNQELCLGRPTEFLNHHCCYRSFCNHNVSLMLEATQTPSEEPEVDAHLPLILGPVLALPVLVALGALGLWRVRRRQEKQRDLHSDLGESSLILKASEQADSMLGDFLDSDCTTGSGSGLPFLVQRTVARQVALVECVGKGRYGEVWRGSWHGESVAVKIFSSRDEQSWFRETEIYNTVLLRHDNILGFIASDMTSRNSSTQLWLITHYHEHGSLYDFLQRQTLEPQLALRLAVSAACGLAHLHVEIFGTQGKPAIAHRDLKSRNVLVKSNLQCCIADLGLAVMHSQSSDYLDIGNNPRVGTKRYMAPEVLDEHIRTDCFESYKWTDIWAFGLVLWEIARRTIINGIVEDYRPPFYDMVPNDPSFEDMKKVVCVDQQTPTIPNRLAADPVLSGLAQMMRECWYPNPSARLTALRIKKTLQKLSHNPEKPKVIH
In the case of B2, the binding result in assay [2] was “binds”.

Source of the values: publication PMC9396412.
